Reference: PubChem BioAssay AID1259425 (University of Nebraska Medical Center, 2018)

Screen: 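Seek colon cancer weak points whose silencing resembles KSR1 loss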 (primary screen)
System: HCT116 human colon cancer cells
Knock-down reagent: siRNA pool against human genes, 50 nM siRNA
Measurement: 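mRNA of six signature genes measured together by branched-DNA assay after 50 nM siRNA pool, blank removed, divided by geometric mean of two housekeeping genes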
Scale: BNIP3L mRNA: higher = more BNIP3L transcript after knockdown
Here is an unselected part of about 14,000 deposited reagents. Not all columns of the deposit are shown. Reagent sequences are not shown. Not stated in the record: the time to read-out.

PEX11A (GeneID 8800) — BNIP3L mRNA, set 1 = 0.0625
AIF1 (GeneID 199) — BNIP3L mRNA, set 1 = 0.0975
CERCAM (GeneID 51148) — BNIP3L mRNA, set 1 = 0.0991
RBX1 (GeneID 9978) — BNIP3L mRNA, set 1 = 0.257
TIPIN (GeneID 54962) — BNIP3L mRNA, set 1 = 0.116
MLST8 (GeneID 64223) — BNIP3L mRNA, set 1 = 0.205
SHANK3 (GeneID 85358) — BNIP3L mRNA, set 1 = 0.0819
PNPLA8 (GeneID 50640) — BNIP3L mRNA, set 1 = 0.112
CARNS1 (GeneID 57571) — BNIP3L mRNA, set 1 = 0.109
SETDB1 (GeneID 9869) — BNIP3L mRNA, set 1 = 0.133
KLF12 (GeneID 11278) — BNIP3L mRNA, set 1 = 0.122
PCDHGA9 (GeneID 56107) — BNIP3L mRNA, set 1 = 0.134
CRCP (GeneID 27297) — BNIP3L mRNA, set 1 = 0.0543
SCPEP1 (GeneID 59342) — BNIP3L mRNA, set 1 = 0.0569
TRIT1 (GeneID 54802) — BNIP3L mRNA, set 1 = 0.0575
AAMP (GeneID 14) — BNIP3L mRNA, set 1 = 0.228
TFAP2A (GeneID 7020) — BNIP3L mRNA, set 1 = 0.124
GPN3 (GeneID 51184) — BNIP3L mRNA, set 1 = 0.0657
FCHSD2 (GeneID 9873) — BNIP3L mRNA, set 1 = 0.178
RSF1 (GeneID 51773) — BNIP3L mRNA, set 1 = 0.102
ENC1 (GeneID 8507) — BNIP3L mRNA, set 1 = 0.216
UCKL1 (GeneID 54963) — BNIP3L mRNA, set 1 = 0.198
HSFX1 (GeneID 100506164) — BNIP3L mRNA, set 1 = 0.0635
PSD2 (GeneID 84249) — BNIP3L mRNA, set 1 = 0.155
JUNB (GeneID 3726) — BNIP3L mRNA, set 1 = 0.201
IL17RC (GeneID 84818) — BNIP3L mRNA, set 1 = 0.156
MT-ATP6 (GeneID 4508) — BNIP3L mRNA, set 1 = 0.0813
ERC1 (GeneID 23085) — BNIP3L mRNA, set 1 = 0.0641

Sorted by “BNIP3L mRNA, set 1” (low to high): 2 of the entries above
RSF1 (GeneID 51773) — BNIP3L mRNA, set 1 = 0.102
FCHSD2 (GeneID 9873) — BNIP3L mRNA, set 1 = 0.178
